The experiment addresses ANK domain of Notch1 intracellular segment N1ICD (UniProt P46531). As to the kind of experiment: SPR.

Protein sequences, listed by entry. Tags and fused reporters are not part of them. Residues count along the entry.
UniProt P46531, residues 1872-2126: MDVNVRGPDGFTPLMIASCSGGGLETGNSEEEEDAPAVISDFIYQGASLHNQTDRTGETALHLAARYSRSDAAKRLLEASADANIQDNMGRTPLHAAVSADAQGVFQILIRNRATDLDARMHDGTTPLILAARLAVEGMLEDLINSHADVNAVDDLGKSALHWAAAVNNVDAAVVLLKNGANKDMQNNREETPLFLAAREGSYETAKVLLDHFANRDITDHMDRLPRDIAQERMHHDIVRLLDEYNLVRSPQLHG

No constants are given. Whether binding was seen depends on the method and setting. Some entries that bind do so weakly or less than the wild type.

Consider YAKRIFYQLLSKQL [modified AH2 (mAH2), modified α-helice 2], for which the binding result was “binds”.
With YAKRIFYQLLSKEL [AH2 (α-helix 2 of N1DARP)], the binding entry was “binds”.

Source of the values: patent US20230416305A1.
